In patent US20220387611A1, “METHODS FOR TREATING CANCER” (BicycleRD Limited, priority 2019, published 2022):
pKd: −log10 of the molar value. At least one structure is not confirmed: it was looked up by name or label, or the drawing left a doubt. Starred links: 1 amine or outer side, 2 acyl side, 3 side chain; linkers in the order of their positions; H or OH if unused. Positions of bridges follow the written chain, without caps; N, C: chain ends. Non-standard residues stand in square brackets, D forms with d. Residues, ends and D or L forms follow the SMILES beside them. 1Nal = N[C@@H](Cc1cccc2ccccc12)C(=O)O; TBMB = c1c(C[*:1])cc(C[*:3])cc1C[*:2]; Tle = CC(C)(C)[C@H](N)C(=O)O; βAla = NCCC(=O)O; Sar = CNCC(=O)O

Target: hemopexin domain of MT1 (Homo sapiens, UniProt P50281)
Experiment: Bicycle peptide binding to hemopexin domain of MT1
Settings: read-out: apparent Kd

Compound `C[C@H](NC(=O)CN(C)C(=O)CN(C)C(=O)CN(C)C(=O)CN(C)C(=O)CN(C)C(=O)CN(C)C(=O)CN(C)C(=O)CN(C)C(=O)CN(C)C(=O)CN(C)C(=O)CCN)C(=O)N[C@H]1CSCc2cc3cc(c2)CSC[C@H](NC(=O)[C@@H](C)NC(=O)[C@H](Cc2cccc4ccccc24)NC(=O)[C@H](CCC(=O)O)NC(=O)[C@H](CC(N)=O)NC(=O)[C@@H](C)NC1=O)C(=O)N[C@@H](CCC(=O)O)C(=O)N[C@@H](CC(=O)O)C(=O)N[C@@H](Cc1ccccc1)C(=O)N[C@@H](Cc1ccc(O)cc1)C(=O)N[C@@H](CC(=O)O)C(=O)N[C@@H](C(C)(C)C)C(=O)N[C@H](C(N)=O)CSC3` [N241] (H-[βAla][Sar][Sar][Sar][Sar][Sar][Sar][Sar][Sar][Sar][Sar]AC[dA]NE[1Nal][dA]CEDFYD[Tle]C-NH2; linker 13-19-26 via TBMB) has a pKd of roughly 8.70.
